Our source for the AC50 and cell number change values is PubChem BioAssay AID2685 (National Center for Advancing Translational Sciences (NCATS), 2010).

The other results are listed elsewhere or left out. The main result of the screen is listed elsewhere. These columns were measured beside it and carry no call. Most of these compounds were active or inconclusive in the main read-out, so they are no random draw. Words in brackets tell the shape of the fitted curve; partial curves, single points and poor fits give uncertain potencies.

This experiment can be described thus: qHTS Assay for Lipid Storage Modulators in Drosophila S3 Cells.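 As to cell number change: cells counted by Cell Tracker Red CMTPX staining in the red channel.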 Particulars: BODIPY lipid droplet fluorescence, 18-24 h; for cell number change: measured here: cell count max response, cells fed with added oleic acid. The essentials:
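Drosophila S3 cells loaded with oleic acid (400 uM, as added) and compounds at several concentrations; lipid droplets imaged by 488-nm laser-scanning cytometry, 500–530 nm intensity and object ratio to cell channel. Percent activity normalized to 20 uM Triacsin C.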
For orientation: qHTS replaces the single test concentration by a dilution series.

[1] abbreviates: measured here: lipid fluorescence (Fed channel) AC50, cells fed with added oleic acid.
Setting [2] is: measured here: cell number channel AC50, cells fed with added oleic acid.

As to `CC(=O)c1c(C)[nH]c(C(=O)OC2CCCCC2=O)c1C` (stereo not given), the AC50 under setting [1] was 5.17 µM [falling, single point]. For `O=C(CN1CCN(S(=O)(=O)c2ccc(F)cc2)CC1)NC1CCCC1`, the cell number change worked out at 29.3%. Under setting [1], the AC50 was 8.2 µM [rising, partial curve, poor fit]. Take `CCN(CC)S(=O)(=O)c1ccc(C)c(NC(=O)COc2ccc(Br)cc2Cl)c1`: the cell number change was -35.2%. Besides, the AC50 under setting [2] was 2.91 µM [falling, full curve]. The AC50 under setting [1] was 2.91 µM [falling, full curve]. Take `O=C(CSc1nnc2ccc(-c3ccccn3)nn12)NCC1CCCO1` (stereo not given): the cell number change was -6.28%. Further, the AC50 under setting [1] was 0.116 µM [falling, single point].

With `CC1=CCC[C@@H]2[C@@](C)(CC/C(C)=C/C(=O)O)[C@H](C)CC[C@@]12C`, the cell number change was -39.5%. Further, under setting [2], the AC50 is 29.1 µM [falling, single point]. Also, the AC50 under setting [1] is 32.6 µM [falling, partial curve]. As to `O=C(Nc1ccccc1O)c1ccc2c(c1)C(=O)N(N1C(=O)c3ccccc3C1=O)C2=O`, the cell number change was -1.94%. The AC50 under setting [1] was 0.82 µM [falling, full curve, poor fit].

Consider `O=C(CN1CCN(S(=O)(=O)c2ccc3ccccc3c2)CC1)Nc1ccc2c(c1)CCC2`, for which the cell number change stood at 2.1%. Besides, under setting [2], the AC50 was 0.731 µM [falling, single point].

`Cc1csc(SCC(=O)Nc2ccc3c(c2)OCCO3)n1`: the AC50 was 0.00461 µM [falling, full curve] under setting [2] and 0.00461 µM [falling, full curve, poor fit] under setting [1]. Take `CC1=C(C(=O)Nc2ccccc2C)C(c2cccnc2)n2nc(CCCO)nc2N1` (stereo not given): the cell number change stood at 5.69%. The half-maximal activity concentration (AC50) under setting [1] is 0.0517 µM [falling, full curve, poor fit]. As to `O=C(COC(=O)C1CC2C=CC1C2)NCc1ccc(F)cc1` (stereo not given), the cell number change was determined as 13.8%. The AC50 under setting [1] was 0.58 µM [falling, full curve, poor fit]. `CC(CN1CCCCC1)NC(=O)c1cc(-c2ccccn2)nc2ccc(Cl)cc12` (stereo not given): the cell number change was found to be 3.38%. The AC50 under setting [1] was 0.146 µM [falling, full curve, poor fit]. Regarding `CCOC(=O)c1sc2nc(N3CCOCC3)c3c(c2c1N)CCCC3`, the cell number change was -16.1%.

In the case of `N#CCC(=O)N/N=C/c1cc([N+](=O)[O-])ccc1N1CCOCC1`, the cell number change was 45.8%. Regarding `NNc1nc2c(Cl)ccc(Cl)c2s1`, the cell number change was -16.7%. In the case of `Cc1ccc(N(CC(O)CN2CCCCC2)S(=O)(=O)c2ccc(C)cc2)cc1` (stereo not given), the cell number change amounted to 1.32%. Moreover, under setting [1], the AC50 is 3.55 µM [rising, single point]. Turning to `CC(C)CN1CCN=C1N(C)C`, the cell number change was -6.89%. For the same compound, the AC50 under setting [1] is 29.1 µM [rising, single point]. In the case of `Cc1cc(C(=O)NN)c2cc(Br)ccc2n1`, under setting [2], the AC50 was 0.731 µM [rising, partial curve]. On to `Cc1c(NC(=O)CCCCCN2C(=O)c3ccccc3C2=O)c(=O)n(-c2ccccc2)n1C`, for which the cell number change was -1.02%. For the same compound, under setting [1], the AC50 was 7.31 µM [rising, partial curve, poor fit]. As for `Cc1nnc(NCCO)c2ccccc12`, the cell number change is 35%. The AC50 under setting [2] was 14.6 µM [rising, single point]. In addition, under setting [1], the AC50 is 20.6 µM [rising, partial curve].

Consider `O=C(COC(=O)/C=C/c1ccccc1Cl)NCCNC(=O)COC(=O)/C=C/c1ccccc1Cl`, for which the cell number change turned out to be 115%. Further, under setting [2], the AC50 is 16.4 µM [rising, single point]. Under setting [1], the AC50 is 11.6 µM [falling, single point]. For `CC(=O)c1cccc(CN(C)CC2CCCN(CCc3ccccc3C)C2)c1` (stereo not given), the cell number change was -3.8%. The AC50 under setting [1] was 3.66 µM [rising, single point]. Take `Cc1ccc(S(=O)(=O)N2CCN(Cc3cc(=O)n4ccccc4n3)CC2)c(C)c1`: the cell number change was -17.7%. Further, the AC50 under setting [1] was 0.116 µM [falling, full curve]. Consider `O=C(CSc1nnc(-c2ccccc2Br)o1)Nc1cccc2ccccc12`, for which the cell number change worked out at 96%. Further, the half-maximal activity concentration (AC50) under setting [1] is 0.731 µM [rising, single point]. Consider `O=C(NCc1cccs1)C(=O)NCC1OCCCN1S(=O)(=O)c1cccs1` (stereo not given), for which the cell number change is -17.4%. Consider `CCc1ccc(S(=O)(=O)ON2C(=O)c3ccccc3C2=O)cc1`, for which the cell number change was -22%. In addition, under setting [1], the AC50 was 0.794 µM [falling, single point]. `Cc1cc([N+](=O)[O-])c2c(c1C)C1C=CCC1C(c1ccccn1)N2` (stereo not given): the cell number change is -1.49%. For `O=c1[nH]cnc2c1ncn2Cc1ccc([N+](=O)[O-])cc1`, the cell number change is -49.9%. For the same compound, the AC50 under setting [2] is 18.4 µM [falling, partial curve]. Moreover, under setting [1], the AC50 is 14.6 µM [falling, partial curve]. As to `CSCCC(NC(=O)c1ccco1)C(=O)N1CC=C(c2ccccc2)CC1` (stereo not given), the cell number change was 26.5%. Moreover, the AC50 under setting [1] is 12.6 µM [rising, single point].

For the compound `C=C(C)C(=O)Nc1ccc(OC(F)(F)C(F)F)c(NC(=O)C(=C)C)c1`, the cell number change was -50.7%. Moreover, the AC50 under setting [2] is 20.6 µM [falling, partial curve, poor fit]. Under setting [1], the AC50 is 23.1 µM [falling, single point]. In the case of `CC(=O)c1sc(NC(=O)c2ccc(Cn3cc(Br)cn3)o2)nc1C`, the AC50 by setting is: under setting [2], 0.731 µM [falling, full curve]; under setting [1], 0.731 µM [falling, full curve]. Take `COc1ccc(CCNS(=O)(=O)c2cc3c(cc2C)NC(=O)CO3)cc1OC`: the cell number change worked out at 19.9%. Besides, under setting [1], the AC50 was 20.6 µM [falling, single point]. Consider `COc1ccc(S(=O)(=O)N2CCC(C(=O)NCC3CCCO3)CC2)cc1Cl` (stereo not given), for which the cell number change came to 6.58%. For the same compound, the half-maximal activity concentration (AC50) under setting [1] is 0.1 µM [falling, full curve, poor fit].

As for `COc1ccc(CCn2c(C)cc(C(=O)CSc3nnnn3-c3ccccc3)c2C)cc1OC`, the cell number change is -44.5%. In addition, the AC50 under setting [2] was 32.6 µM [falling, single point]. For the same compound, the AC50 under setting [1] was 2.31 µM [falling, partial curve]. Take `CC1CN(C(=O)N[C@@H](Cc2ccccc2)C(=O)O)CC(C)O1` (stereo not given in full): the cell number change is -12.9%. The concentration at half-maximal activity (AC50) under setting [2] was 0.366 µM [falling, full curve, poor fit]. In addition, the half-maximal activity concentration (AC50) under setting [1] is 0.82 µM [falling, full curve, poor fit].

For `CC(=O)c1ccc(OCCCC(=O)Nc2ccc(C)c(S(=O)(=O)N3CCCCC3)c2)cc1`, under setting [2], the concentration at half-maximal activity (AC50) is 3.26 µM [rising, single point]. As to `NC(CC(=O)OC1CCCCC1)C(=O)OC1CCCCC1` (stereo not given), the cell number change is -27.7%. Further, the AC50 under setting [2] was 0.103 µM [falling, full curve, poor fit]. Regarding `CCc1cc(=O)n2c([nH]c3ccccc32)c1C#N`, the cell number change was 44.7%. The concentration at half-maximal activity (AC50) under setting [2] is 20.6 µM [rising, single point]. Take `O=c1[nH]nc(-c2cccs2)c2ccccc12`: the cell number change was found to be 6.9%. The AC50 under setting [2] is 3.66 µM [rising, single point].

For the compound `O=C(O)CNC(=O)CCN1C(=O)c2ccccc2C1=O`, the cell number change is -19.9%. Under setting [1], the AC50 is 20.6 µM [falling, partial curve]. With `Cc1ccc(C2(C)NC(=O)N(CC(=O)N3CCN(C(=O)c4cccs4)CC3)C2=O)cc1` (stereo not given), the cell number change was -15.2%. Besides, the AC50 under setting [1] is 0.103 µM [falling, partial curve, poor fit]. Consider `CCc1nnc(NC(=O)c2ccc3ncsc3c2)s1`, for which the cell number change was -42.5%. Besides, the half-maximal activity concentration (AC50) under setting [2] was 5.17 µM [falling, full curve, poor fit]. Moreover, the AC50 under setting [1] is 4.61 µM [falling, full curve]. Turning to `COc1ccc(NC(=O)CSc2nnc(CNc3ccc(F)cc3)o2)c(OC)c1`, the cell number change was determined as 35.3%. Moreover, the AC50 under setting [2] was 10.3 µM [rising, single point]. Besides, under setting [1], the concentration at half-maximal activity (AC50) is 20.6 µM [rising, partial curve]. For the compound `O=C(CSc1nc2c([nH]c3ccccc32)c(=O)n1-c1ccccc1)NCC1CCCO1` (stereo not given), the cell number change was -38.6%. For the same compound, under setting [2], the AC50 was 32.6 µM [falling, partial curve]. The concentration at half-maximal activity (AC50) under setting [1] was 0.58 µM [falling, single point]. For `CCCN(CCC)c1nc(NC2CCN(C(=O)OCC)CC2)nc(OC)n1`, the cell number change is -51.5%. The AC50 under setting [2] is 13 µM [falling, partial curve]. In addition, under setting [1], the half-maximal activity concentration (AC50) is 16.4 µM [falling, partial curve]. Turning to `C=CCn1c(SCc2nc(N)nc(N3CCCCC3)n2)nnc1-c1ccco1`, the cell number change is -17%. The concentration at half-maximal activity (AC50) under setting [1] was 0.58 µM [rising, partial curve, poor fit].

As for `CC1=C(C(=O)N2CCCC(N3CCN(c4ccccc4F)CC3)C2)OCCO1` (stereo not given), the AC50 under setting [1] was 6.51 µM [rising, full curve, poor fit].

For `CC(NC(=O)C1CC1)c1ccc(-c2ccccc2)cc1` (stereo not given), the cell number change was -14.3%. Consider `COc1ccccc1C(=O)Nc1ccc2nc3n(c(=O)c2c1)CCCC3`, for which the cell number change was found to be 0.37%. As for `CC1CN(Cc2ccccc2Cl)CC(C)O1` (stereo not given), the cell number change was found to be 4.44%. Take `CNC(=O)CC(C(=O)O)c1ccc(OC(C)C)cc1` (stereo not given): the cell number change is -0.559%. For the same compound, under setting [1], the AC50 was 2.59 µM [falling, full curve]. In the case of `COCCNS(=O)(=O)c1cc(F)ccc1OC`, the cell number change is -85%. Further, under setting [2], the AC50 is 29.1 µM [falling, single point]. The concentration at half-maximal activity (AC50) under setting [1] was 29.1 µM [falling, single point]. As to `CC1=NN(Cc2cc(C(C)(C)C)c(O)c(C(C)(C)C)c2)C(=O)C1`, the AC50 under setting [1] was 14.6 µM [falling, partial curve, poor fit].

Consider `Cc1[nH]n(-c2ccccc2)c(=O)c1C=NC1CCCCCC1`, for which the cell number change was -37.2%. For `Cc1cc(NS(=O)(=O)c2ccc(NC(=O)Cc3ccc([N+](=O)[O-])cc3)cc2)no1`, the cell number change was -2.97%. Besides, the AC50 under setting [1] was 29.1 µM [rising, single point]. In the case of `Cc1cc(Cl)c(OCCN2C(=O)NC(C)(C)C2=O)c(Br)c1`, under setting [2], the AC50 is 2.06 µM [rising, partial curve]. `Cc1cc2c(C)cc(=O)oc2c2c1NCCC2`: the cell number change was 57.8%. Further, the AC50 under setting [2] was 2.31 µM [rising, partial curve, poor fit]. For the compound `O=C(O)CN1C(=O)C(=O)N(Cc2cccc(F)c2)C1=O`, the cell number change is 22.8%. `Cc1onc(-c2ccccc2)c1C(=O)NNC(=S)NC(=O)c1ccc(Br)cc1`: the cell number change was -28.8%. The AC50 under setting [1] was 16.4 µM [falling, single point]. Consider `CN(C)CCN(C(=O)/C=C/c1cccs1)c1nc2ccc(F)cc2s1`, for which the cell number change is -17.1%. The AC50 under setting [1] was 29.1 µM [falling, single point].

As usually defined, the AC50 is the midpoint of the concentration-response curve, whichever way the signal moves.
